# Library screen at single concentrations

Amino acid sequences for entries named in this document (tags omitted). Residues count along the entry.
UniProt P9WPC5, whole entry: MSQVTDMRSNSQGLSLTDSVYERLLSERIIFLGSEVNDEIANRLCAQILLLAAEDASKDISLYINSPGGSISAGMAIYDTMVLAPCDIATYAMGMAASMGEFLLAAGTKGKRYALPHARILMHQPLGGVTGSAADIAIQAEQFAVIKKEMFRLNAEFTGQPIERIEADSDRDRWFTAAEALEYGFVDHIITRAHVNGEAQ
UniProt P9WPC3, whole entry partner: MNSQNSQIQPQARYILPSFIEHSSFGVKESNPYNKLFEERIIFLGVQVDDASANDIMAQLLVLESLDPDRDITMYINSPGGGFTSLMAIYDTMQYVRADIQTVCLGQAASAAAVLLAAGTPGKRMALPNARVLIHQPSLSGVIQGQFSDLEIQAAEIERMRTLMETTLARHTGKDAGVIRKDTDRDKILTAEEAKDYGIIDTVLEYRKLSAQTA
UniProt P9WNZ1, whole entry: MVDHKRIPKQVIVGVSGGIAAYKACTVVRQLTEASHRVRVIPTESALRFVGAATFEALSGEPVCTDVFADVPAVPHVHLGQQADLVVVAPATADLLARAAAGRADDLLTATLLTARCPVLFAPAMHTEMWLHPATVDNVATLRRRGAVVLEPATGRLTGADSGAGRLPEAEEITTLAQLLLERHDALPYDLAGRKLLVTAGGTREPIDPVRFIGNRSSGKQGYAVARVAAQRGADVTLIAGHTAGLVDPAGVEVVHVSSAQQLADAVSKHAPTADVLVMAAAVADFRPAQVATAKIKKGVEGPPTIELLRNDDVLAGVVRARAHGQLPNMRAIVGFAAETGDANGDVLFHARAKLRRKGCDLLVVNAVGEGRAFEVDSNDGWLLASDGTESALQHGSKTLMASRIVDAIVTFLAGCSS
UniProt Q8IDJ8, 1-583: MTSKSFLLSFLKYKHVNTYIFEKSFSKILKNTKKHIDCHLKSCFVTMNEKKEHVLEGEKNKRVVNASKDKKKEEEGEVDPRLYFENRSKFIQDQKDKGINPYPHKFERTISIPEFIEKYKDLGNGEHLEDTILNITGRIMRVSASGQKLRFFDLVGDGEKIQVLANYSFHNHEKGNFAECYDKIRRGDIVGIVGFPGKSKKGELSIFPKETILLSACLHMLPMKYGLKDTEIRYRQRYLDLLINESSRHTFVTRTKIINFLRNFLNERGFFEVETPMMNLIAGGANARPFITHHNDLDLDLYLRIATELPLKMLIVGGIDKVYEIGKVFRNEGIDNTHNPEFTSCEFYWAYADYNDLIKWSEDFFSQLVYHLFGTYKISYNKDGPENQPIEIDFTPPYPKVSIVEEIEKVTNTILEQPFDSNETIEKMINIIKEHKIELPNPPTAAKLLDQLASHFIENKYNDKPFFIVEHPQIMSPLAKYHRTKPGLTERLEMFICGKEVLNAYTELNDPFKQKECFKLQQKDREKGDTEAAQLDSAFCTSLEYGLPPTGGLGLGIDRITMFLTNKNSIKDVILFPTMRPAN

ClpP1P2: 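ClpP1P2, Mycobacterium tuberculosis (UniProt P9WPC5 and UniProt P9WPC3). Protease assay of ClpP1P2, read by the AMC dye that it sets free. Tested at 50 µM. Direction is inferred from only a few compounds that gave an IC50; most scored high, so higher reads as stronger inhibition. Most other retested compounds had strongly negative values. Of about 69,000 compounds tested this way, about 10 (0.015%) reached 50% or more in at least one test.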
CoaBC: 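Enzyme assay of CoaBC with a phosphate dye (Biomol Green) read at 650 nm. Target: Coenzyme A biosynthesis protein CoaBC, Mycobacterium tuberculosis (UniProt P9WNZ1). Concentration: 30 µM. Higher reads as stronger inhibition, judged from the few compounds that gave an IC50. Most strong results did not repeat in a second test. Size under these conditions: about 67,000 compounds, about 40 of them at 50% or above in at least one test.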
PfKRS1: 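Enzyme assay of the cytosolic lysyl-tRNA synthetase in 384-well plates, read by luminescence. Target: Lysine-tRNA ligase, Plasmodium falciparum 3D7 (UniProt Q8IDJ8). Tested at 30 µM. Higher reads as stronger inhibition, judged from the few compounds that gave an IC50. About 69,000 compounds were tested under these conditions; 0.071% (about 49) showed 50% or more at least once.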
Leishmania in macrophages: 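Cell assay of Leishmania donovani living inside macrophages; the read-out is not stated. Tested at 30 µM. Direction is inferred from retests: higher values go with stronger inhibition. Of about 69,000 compounds tested this way, about 1,000 (1.5%) reached 50% or more in at least one test.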

Values are the deposited “Percent Effect”, in %.
How 0% and 100% were set is not recorded. Most values in the screen are low, and negative values occur.
This is an unselected part of the compounds tested.
Two or more numbers in one place are separate tests of the same structure; such repeats can differ widely.
A dash means the value is not listed here; it may have been measured.

| structure | ClpP1P2 | CoaBC | PfKRS1 | Leishmania in macrophages |
|---|---|---|---|---|
| `Cn1c(C2CCCN2C(=O)CN2CCCC2=O)nc2ccccc21` (stereo not shown) | 1.165 | 1.583 | 6.476 | 13.43 |
| `CC(C)Nc1nc(O)cc(C2CC(=O)N(Cc3ccccc3)C2)n1` (stereo not shown) | -23.26 | 0.618 | 2.841 | 27.15 |
| `Cc1c(-c2nc3cc(S(=O)(=O)N4CCCC4)ccc3n2C)cnn1C` | -11.72 | 1.139 | 3.471 | 0.2372 |
| `Cc1cc(F)ccc1C(=O)N1CCN(C)C2(CCC(=O)N(C)CC2)C1` (stereo not shown) | -6.446 | -3.457 | 2.119 | 7.396 |
| `Cc1csc(CN2CCC[C@]3(C[C@H](Oc4ccccn4)CO3)C2)n1.O=C(O)C(F)(F)F.O=C(O)C(F)(F)F` | - | - | - | 0.2486 |
| `O=C(c1cscn1)N1CCCC12CCCN(S(=O)(=O)c1ccccc1)C2` (stereo not shown) | 2.104 | -1.474 | 0.4238 | 26.07 & 6.816 |
| `O=C(c1cc(Cl)c2c(c1)OCO2)N1CCN(c2nccs2)CC1` | 3.074 | 2.345 | 1.704 | 29.78 |
| `Cc1cc(O)c(OCC(=O)/N=c2/[nH]c3c(s2)CCC3)cn1` | -13.9 | 5.19 | 7.081 | 39.94 |
| `Cc1nccn1CCCn1cncc1-c1ccc2c(c1)CCCN2C.Cl` | - | - | - | -6.218 |
| `Cc1nc(CN2CCCN(C(=O)c3c(C)noc3C)CC2)cs1` | -7.282 | 2.316 | 7.468 | 13.97 |
| `Cc1nnc2n1CCN(C(=O)CN1C(=O)CCOc3ccccc31)C2` | 3.621 | -4.497 | 4.29 | 26.8 |
| `CC(Cn1cncn1)NC(=O)c1cn(Cc2ccccc2F)nn1` (stereo not shown) | -2.137 | - | 2.261 | -3.928 |
| `CCn1c(C)nnc1CN(C)C1CCN(CCc2cccs2)C1` (stereo not shown) | 11.6 | 0.3636 | -6.166 | -17.55 |
| `Cc1cc(C)n(CCCN(C)C(=O)[C@H]2CCCO2)n1` | 4.468 | 8.845 | 5.813 | 2.951 |
| `COc1cccc(-c2n[nH]cc2CNC2CCN(C(C)C)CC2)c1` | 4.697 | 13.06 | 2.054 | - |
| `CCCc1nn(C2CCN(C3CC3)C2=O)c(=O)o1` (stereo not shown) | -13.23 | 7.579 | 2.687 | -13.56 |
| `CNC(=O)C1CCC(NC(=O)N(C)Cc2c(C)noc2C)CC1` (stereo not shown) | 0.265 | 3.627 | 1.008 | -14.46 |
| `CCC(=O)NCC(=O)NC(C)c1ccc(OCCC(C)C)cc1` (stereo not shown) | 3.027 | 0.3468 | -2.331 | -8.804 |
| `Cc1cnn(CC2CCCCN2CC(=O)Nc2cccnc2)c1` (stereo not shown) | -26.96 | 2.296 | -0.5467 | -2.534 |
| `C[C@@H]1CN(C(=O)CCN2CCOCC2)CC[C@]1(C)O` | -9.236 | 9.287 | 0.9514 | 30.46 |
| `Cc1nccn1C1CCCN(C(=O)c2ccc3c(c2)OCCCO3)C1` (stereo not shown) | -33.59 | 6.003 | -0.2229 | 28.15 |
| `O=C(Cn1cnc2ccsc2c1=O)c1ccc2c(c1)OCCO2` | 3.609 | 3.185 | 2.482 | 33.68 |
| `CN(C)c1ccc(CNC(=O)NCCc2cccs2)cn1` | 6.681 | 14.04 | 0.5923 | 32.43 |
| `CC(C)C(=O)N1CCCC12CCCN(C(=O)c1ccno1)C2` (stereo not shown) | 7.126 | -8.35 | 0.3422 | -0.5527 |
| `CNCC(=O)N1CCCC1c1n[nH]cc1-c1ccccc1F.Cl` (stereo not shown) | - | - | - | 20.84 |
| `COCCOC[C@]1(CNC(=O)c2ccc(OC)cc2)C[C@@H](O)[C@@H](O)C1` | -4.461 | 3.837 | 4.489 | 1.673 |
| `CNc1ncc(CN2CCC(CCc3ccccc3)CC2)cn1` | -22.52 | 2.331 | 0.02861 | -23.9 |
| `OC[C@@H](O)CN(CCC(F)(F)F)c1ncc(Br)cn1` | 1.666 | -2.419 | -3.587 | 0.5038 |
| `CN(Cc1ccc(F)cc1)C(=O)Nc1cccnc1N1CCCC1` | -8.117 | 1.434 | 1.402 | 9.575 |
| `COc1ccccc1C(=O)N1CCN(C(=O)CCn2ccnc2)CC1` | -5.423 | -0.6536 | 1.899 | 2.62 |
| `CC(C)CNC(=O)c1cc2c(s1)CCN2S(C)(=O)=O` | -20.3 | -8.508 | -0.401 | 16.41 |
| `COCCO[C@H]1CCN(C(=O)c2ccco2)[C@H]1Cc1cnn(C)c1` | 5.129 | 0.8963 | 2.566 | 47.48 |
| `c1cc(-c2cn[nH]c2)ncc1CN1CCCCC1` | 8.887 | -2.512 | 16.65 | 17.34 |
| `CC(C)NC(=O)NCc1cc(-c2cccc(Cl)c2)nn1C` | 0.3442 | 1.084 | 2.465 | 4.057 & 8.938 |
| `Cc1nn(CN(CC(C)C)C2CC2)c(=O)c2noc(C)c12` | 6.932 | -0.7317 | 8.621 | 25.13 |
| `CNC(=O)C1CCCCN1C(=O)c1cn(CCOC)c2ccccc12` (stereo not shown) | -3.115 | 0.3968 | 1.341 | 10.33 |
| `Cc1occc1C(=O)Nc1cccc(C(=O)OCC2CCCN2)c1.Cl` (stereo not shown) | - | - | - | -7.735 |
| `COc1c(F)cccc1C(=O)NC(C)c1cnn(C)c1` (stereo not shown) | 5.874 | - | 5.442 | 28.08 |
| `O=C(O)C(F)(F)F.[H][C@]12CN(C)C[C@@]1(C(=O)O)CCCN(C(=O)NCc1cccc(F)c1)C2` | - | - | - | -11.98 |
| `Cc1ccc(CN2CCCC3(COCCN(Cc4c[nH]nn4)C3)C2)o1.O=C(O)C(F)(F)F.O=C(O)C(F)(F)F` (stereo not shown) | - | - | - | 10.36 |
| `CN(Cc1ccc2c(c1)OCCO2)C(=O)Cn1ccccc1=O` | -6.006 | 0.9126 | 8.697 | 4.244 |
| `NC(=O)CC1CCN(c2cncc(OCc3ccccc3)n2)CC1` | -28.76 | 6.796 | 2.308 | 5.712 |
| `N#CCSCCCN1CCN(C(=O)c2ccc(Cl)cc2)CC1` | -12.23 | 5.806 | -10.58 | -24.15 |
| `Cc1nn(CCC#N)c(C)c1CCC(=O)N(C)Cc1ccc(F)cc1F` | 7.852 | 15.6 | 1.295 | 2.715 |
| `O=c1[nH]nc2c(N3CCOCC3)nccn12` | 25.52 | -9.474 | 6.489 | 19.75 |

The first 4 entries again:

* Cn1c(C2CCCN2C(=O)CN2CCCC2=O)nc2ccccc21 (stereo not shown) | ClpP1P2: 1.165%; CoaBC: 1.583%; PfKRS1: 6.476%; Leishmania in macrophages: 13.43%
* CC(C)Nc1nc(O)cc(C2CC(=O)N(Cc3ccccc3)C2)n1 (stereo not shown) | ClpP1P2: -23.26%; CoaBC: 0.618%; PfKRS1: 2.841%; Leishmania in macrophages: 27.15%
* Cc1c(-c2nc3cc(S(=O)(=O)N4CCCC4)ccc3n2C)cnn1C | ClpP1P2: -11.72%; CoaBC: 1.139%; PfKRS1: 3.471%; Leishmania in macrophages: 0.2372%
* Cc1cc(F)ccc1C(=O)N1CCN(C)C2(CCC(=O)N(C)CC2)C1 (stereo not shown) | ClpP1P2: -6.446%; CoaBC: -3.457%; PfKRS1: 2.119%; Leishmania in macrophages: 7.396%

Data taken from ChEMBL document CHEMBL3988442, “University of Dundee, Small-Polar-MMV Screening Library” (2021).